Laboratory results: PubChem BioAssay AID1159584 (Peter MacCallum Cancer Centre, 2016)
This is an unselected part of about 18,000 reagents tested. Not all columns of the deposit are shown. Reagent sequences are not shown. Not given: the amount of reagent, the time to read-out.

- Aim: 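Genes that CDH1-null MCF10A cells selectively depend on to survive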 (primary screen)
- Cells: human MCF10A breast epithelial cells, parental and CDH1-null
- Reagents: siRNA against human genes
- Measurement: 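Cell viability by CellTiter-Glo ATP luminescence, each line scaled to the mean of mock wells across plates, then CDH1-null over parental ratio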
- Reading the numbers: CDH1-null / parental viability ratio: higher = CDH1-null cells survive relatively better than parental; CDH1-null viability vs mock: higher = more viable CDH1-null cells

HAUS7 (HAUS augmin like complex subunit 7) — CDH1-null / parental viability ratio = 1.34; CDH1-null viability vs mock (fraction of mock) = 0.91
CCL26 (C-C motif chemokine ligand 26) — CDH1-null / parental viability ratio = 1.02; CDH1-null viability vs mock (fraction of mock) = 0.56
TMEM123 (transmembrane protein 123) — CDH1-null / parental viability ratio = 0.73; CDH1-null viability vs mock (fraction of mock) = 0.63
ABCC1 — CDH1-null / parental viability ratio = 1.04; CDH1-null viability vs mock (fraction of mock) = 1.04
UCMA (upper zone of growth plate and cartilage matrix associated) — CDH1-null / parental viability ratio = 0.92; CDH1-null viability vs mock (fraction of mock) = 0.9
DDAH2 (DDAH family member 2, ADMA-independent) — CDH1-null / parental viability ratio = 0.73; CDH1-null viability vs mock (fraction of mock) = 0.46
PILRB (paired immunoglobin like type 2 receptor beta) — CDH1-null / parental viability ratio = 0.84; CDH1-null viability vs mock (fraction of mock) = 0.56
CD9 (CD9 molecule) — CDH1-null / parental viability ratio = 1.3; CDH1-null viability vs mock (fraction of mock) = 0.74
ANKRD44 (ankyrin repeat domain 44) — CDH1-null / parental viability ratio = 0.98; CDH1-null viability vs mock (fraction of mock) = 1.12
SBSPON (somatomedin B and thrombospondin type 1 domain containing) — CDH1-null / parental viability ratio = 1.06; CDH1-null viability vs mock (fraction of mock) = 0.72
PXYLP1 (2-phosphoxylose phosphatase 1) — CDH1-null / parental viability ratio = 1.41; CDH1-null viability vs mock (fraction of mock) = 0.62
MFSD6 (major facilitator superfamily domain containing 6) — CDH1-null / parental viability ratio = 0.89; CDH1-null viability vs mock (fraction of mock) = 0.78
LSM10 (LSM10, U7 small nuclear RNA associated) — CDH1-null / parental viability ratio = 1.33; CDH1-null viability vs mock (fraction of mock) = 1.13
RHBDD3 (rhomboid domain containing 3) — CDH1-null / parental viability ratio = 0.77; CDH1-null viability vs mock (fraction of mock) = 0.2
LRRC3B (leucine rich repeat containing 3B) — CDH1-null / parental viability ratio = 1.46; CDH1-null viability vs mock (fraction of mock) = 0.73
CAP2 (cyclase associated actin cytoskeleton regulatory protein 2) — CDH1-null / parental viability ratio = 1.08; CDH1-null viability vs mock (fraction of mock) = 0.41
SBF1 (SET binding factor 1) — CDH1-null / parental viability ratio = 1.34; CDH1-null viability vs mock (fraction of mock) = 0.99
HIGD1A (HIG1 hypoxia inducible domain family member 1A) — CDH1-null / parental viability ratio = 0.93; CDH1-null viability vs mock (fraction of mock) = 0.94
PDLIM1 (PDZ and LIM domain 1) — CDH1-null / parental viability ratio = 1.23; CDH1-null viability vs mock (fraction of mock) = 0.74
RPL21P44 (ribosomal protein L21 pseudogene 44) — CDH1-null / parental viability ratio = 1.12; CDH1-null viability vs mock (fraction of mock) = 0.72
ATP5MK (ATP synthase membrane subunit k) — CDH1-null / parental viability ratio = 1; CDH1-null viability vs mock (fraction of mock) = 0.9
LTA (lymphotoxin alpha) — CDH1-null / parental viability ratio = 1; CDH1-null viability vs mock (fraction of mock) = 0.82
SHROOM1 (shroom family member 1) — CDH1-null / parental viability ratio = 1.04; CDH1-null viability vs mock (fraction of mock) = 0.56
SIRPA (signal regulatory protein alpha) — CDH1-null / parental viability ratio = 1.1; CDH1-null viability vs mock (fraction of mock) = 0.92
MRAP (melanocortin 2 receptor accessory protein) — CDH1-null / parental viability ratio = 1.15; CDH1-null viability vs mock (fraction of mock) = 0.75
ZNF510 (zinc finger protein 510) — CDH1-null / parental viability ratio = 1.36; CDH1-null viability vs mock (fraction of mock) = 1.01
TBKBP1 (TBK1 binding protein 1) — CDH1-null / parental viability ratio = 1.08; CDH1-null viability vs mock (fraction of mock) = 0.95
CPA2 (carboxypeptidase A2) — CDH1-null / parental viability ratio = 0.92; CDH1-null viability vs mock (fraction of mock) = 0.72
NKIRAS1 (NFKB inhibitor interacting Ras like 1) — CDH1-null / parental viability ratio = 0.98; CDH1-null viability vs mock (fraction of mock) = 0.65
NPDC1 (neural proliferation, differentiation and control 1) — CDH1-null / parental viability ratio = 1.05; CDH1-null viability vs mock (fraction of mock) = 0.97
TAFA5 (TAFA chemokine like family member 5) — CDH1-null / parental viability ratio = 1.15; CDH1-null viability vs mock (fraction of mock) = 0.9
CYP11B1 (cytochrome P450 family 11 subfamily B member 1) — CDH1-null / parental viability ratio = 0.66; CDH1-null viability vs mock (fraction of mock) = 0.46
CCDC88A (coiled-coil and HOOK domain protein 88A) — CDH1-null / parental viability ratio = 1.12; CDH1-null viability vs mock (fraction of mock) = 0.56
GPS1 (G protein pathway suppressor 1) — CDH1-null / parental viability ratio = 0.48; CDH1-null viability vs mock (fraction of mock) = 0.24
HNF1A (HNF1 homeobox A) — CDH1-null / parental viability ratio = 1.26; CDH1-null viability vs mock (fraction of mock) = 0.91
EXOSC4 (exosome component 4) — CDH1-null / parental viability ratio = 0.85; CDH1-null viability vs mock (fraction of mock) = 0.66
PHF1 (PHD finger protein 1) — CDH1-null / parental viability ratio = 0.95; CDH1-null viability vs mock (fraction of mock) = 0.72
OR10T2 (olfactory receptor family 10 subfamily T member 2) — CDH1-null / parental viability ratio = 0.91; CDH1-null viability vs mock (fraction of mock) = 0.62
NTSR2 (neurotensin receptor 2) — CDH1-null / parental viability ratio = 1.5; CDH1-null viability vs mock (fraction of mock) = 0.99
FPR2 (formyl peptide receptor 2) — CDH1-null / parental viability ratio = 0.97; CDH1-null viability vs mock (fraction of mock) = 1
HLA-DMA (major histocompatibility complex, class II, DM alpha) — CDH1-null / parental viability ratio = 0.89; CDH1-null viability vs mock (fraction of mock) = 0.64
ANO1 (anoctamin 1) — CDH1-null / parental viability ratio = 0.71; CDH1-null viability vs mock (fraction of mock) = 0.7
SIK3 (SIK family kinase 3) — CDH1-null / parental viability ratio = 0.96; CDH1-null viability vs mock (fraction of mock) = 0.72
TAC1 (tachykinin precursor 1) — CDH1-null / parental viability ratio = 1.03; CDH1-null viability vs mock (fraction of mock) = 0.78
FXR1 (FMR1 autosomal homolog 1) — CDH1-null / parental viability ratio = 1.1; CDH1-null viability vs mock (fraction of mock) = 0.88

Part of the list above, reformatted.
{"Target gene": "CD9 (CD9 molecule)", "CDH1-null / parental viability ratio": 1.3, "CDH1-null viability vs mock (fraction of mock)": 0.74}
{"Target gene": "ANKRD44 (ankyrin repeat domain 44)", "CDH1-null / parental viability ratio": 0.98, "CDH1-null viability vs mock (fraction of mock)": 1.12}
{"Target gene": "SBSPON (somatomedin B and thrombospondin type 1 domain containing)", "CDH1-null / parental viability ratio": 1.06, "CDH1-null viability vs mock (fraction of mock)": 0.72}
{"Target gene": "PXYLP1 (2-phosphoxylose phosphatase 1)", "CDH1-null / parental viability ratio": 1.41, "CDH1-null viability vs mock (fraction of mock)": 0.62}
{"Target gene": "MFSD6 (major facilitator superfamily domain containing 6)", "CDH1-null / parental viability ratio": 0.89, "CDH1-null viability vs mock (fraction of mock)": 0.78}
{"Target gene": "LSM10 (LSM10, U7 small nuclear RNA associated)", "CDH1-null / parental viability ratio": 1.33, "CDH1-null viability vs mock (fraction of mock)": 1.13}
{"Target gene": "RHBDD3 (rhomboid domain containing 3)", "CDH1-null / parental viability ratio": 0.77, "CDH1-null viability vs mock (fraction of mock)": 0.2}
